Values after ≈ are worked out from the molar mass of the structure shown.

The subject of test [1] is Aspergillus fumigatus ATCC 204305. Kind of test: Antifungal microdilution broth MIC. The following applies: ATCC204305, 48 h, read-out: MIC Aspergillus fumigatus (standards). For orientation: Broth dilution looks for growth in wells or tubes with falling amounts of substance.
The test system of test [2] is Candida albicans CCM 8320. Kind of test: Antifungal microdilution broth MIC. Particulars: CCM8320, 48 h, read-out: MIC Candida albicans (standards).

One may read the MIC as the lowest concentration found to suppress growth. With `C[C@@H]1[C@H](O)[C@@H](C)/C=C/C=C/C=C/C=C/C=C/C=C/C=C/[C@H](O[C@@H]2O[C@H](C)[C@@H](O)[C@H](N)[C@@H]2O)C[C@@H]2O[C@](O)(C[C@@H](O)C[C@@H](O)[C@H](O)CC[C@@H](O)C[C@@H](O)CC(=O)O[C@H]1C)C[C@H](O)[C@H]2C(=O)O` [amphotericin B], the MIC is 1 µg/mL (≈ 1.08 µM) in test [1] and 0.5 µg/mL (≈ 0.541 µM) in test [2].
